Where two headings read alike, the source gives them in different places. These are yes or no findings as the source states them, for the method shown. Binding seen in cells or lysates may run through a third protein. Here binding means that the protein was enriched with, or labelled near, the bait; the list need not be complete.

The chains behind the UniProt entries cited, without tags or fusion partners.
UniProt Q9UM01: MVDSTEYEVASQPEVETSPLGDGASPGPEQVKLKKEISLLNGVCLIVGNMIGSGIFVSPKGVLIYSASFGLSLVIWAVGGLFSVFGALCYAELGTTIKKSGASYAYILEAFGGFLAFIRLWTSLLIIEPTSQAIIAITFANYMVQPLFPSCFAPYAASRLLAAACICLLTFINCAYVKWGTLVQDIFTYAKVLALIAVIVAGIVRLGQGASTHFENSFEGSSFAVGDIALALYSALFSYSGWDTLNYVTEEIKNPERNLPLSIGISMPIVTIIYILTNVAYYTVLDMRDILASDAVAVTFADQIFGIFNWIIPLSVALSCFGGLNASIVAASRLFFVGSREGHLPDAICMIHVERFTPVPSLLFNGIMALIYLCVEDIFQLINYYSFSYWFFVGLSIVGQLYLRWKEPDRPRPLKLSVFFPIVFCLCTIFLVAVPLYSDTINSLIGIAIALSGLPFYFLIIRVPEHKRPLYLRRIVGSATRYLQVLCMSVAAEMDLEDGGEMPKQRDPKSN
UniProt Q9UHI7: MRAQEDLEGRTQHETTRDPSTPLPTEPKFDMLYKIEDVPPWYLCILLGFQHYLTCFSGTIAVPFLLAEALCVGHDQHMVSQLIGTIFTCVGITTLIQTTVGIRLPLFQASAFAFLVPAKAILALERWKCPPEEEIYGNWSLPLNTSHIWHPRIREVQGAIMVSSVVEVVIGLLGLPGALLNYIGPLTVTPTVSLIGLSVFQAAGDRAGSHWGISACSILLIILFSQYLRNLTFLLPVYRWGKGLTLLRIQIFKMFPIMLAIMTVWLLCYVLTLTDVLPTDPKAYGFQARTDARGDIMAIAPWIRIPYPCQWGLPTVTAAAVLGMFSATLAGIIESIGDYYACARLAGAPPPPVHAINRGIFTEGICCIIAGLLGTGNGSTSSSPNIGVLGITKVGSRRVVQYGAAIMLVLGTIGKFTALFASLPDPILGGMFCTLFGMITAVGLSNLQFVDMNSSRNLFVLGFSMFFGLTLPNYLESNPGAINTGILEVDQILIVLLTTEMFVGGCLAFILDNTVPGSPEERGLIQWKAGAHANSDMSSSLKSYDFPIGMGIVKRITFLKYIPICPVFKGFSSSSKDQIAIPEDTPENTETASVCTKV
UniProt Q8N4N3: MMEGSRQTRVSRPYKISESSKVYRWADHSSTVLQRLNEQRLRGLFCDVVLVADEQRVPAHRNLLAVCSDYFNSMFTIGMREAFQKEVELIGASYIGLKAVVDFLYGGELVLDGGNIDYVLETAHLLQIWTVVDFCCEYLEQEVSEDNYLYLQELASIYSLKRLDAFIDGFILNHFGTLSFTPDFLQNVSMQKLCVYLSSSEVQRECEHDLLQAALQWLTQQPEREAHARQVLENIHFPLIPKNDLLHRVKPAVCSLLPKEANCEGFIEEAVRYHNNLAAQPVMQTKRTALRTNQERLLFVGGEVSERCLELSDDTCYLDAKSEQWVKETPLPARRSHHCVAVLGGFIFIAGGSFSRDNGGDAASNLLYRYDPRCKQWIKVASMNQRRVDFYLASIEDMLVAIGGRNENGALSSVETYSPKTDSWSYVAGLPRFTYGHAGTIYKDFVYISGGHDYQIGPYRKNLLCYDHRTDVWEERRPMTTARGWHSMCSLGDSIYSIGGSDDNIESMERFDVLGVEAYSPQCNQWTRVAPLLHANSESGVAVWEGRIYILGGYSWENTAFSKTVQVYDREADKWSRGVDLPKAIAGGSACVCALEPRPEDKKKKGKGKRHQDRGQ
UniProt Q86TM6: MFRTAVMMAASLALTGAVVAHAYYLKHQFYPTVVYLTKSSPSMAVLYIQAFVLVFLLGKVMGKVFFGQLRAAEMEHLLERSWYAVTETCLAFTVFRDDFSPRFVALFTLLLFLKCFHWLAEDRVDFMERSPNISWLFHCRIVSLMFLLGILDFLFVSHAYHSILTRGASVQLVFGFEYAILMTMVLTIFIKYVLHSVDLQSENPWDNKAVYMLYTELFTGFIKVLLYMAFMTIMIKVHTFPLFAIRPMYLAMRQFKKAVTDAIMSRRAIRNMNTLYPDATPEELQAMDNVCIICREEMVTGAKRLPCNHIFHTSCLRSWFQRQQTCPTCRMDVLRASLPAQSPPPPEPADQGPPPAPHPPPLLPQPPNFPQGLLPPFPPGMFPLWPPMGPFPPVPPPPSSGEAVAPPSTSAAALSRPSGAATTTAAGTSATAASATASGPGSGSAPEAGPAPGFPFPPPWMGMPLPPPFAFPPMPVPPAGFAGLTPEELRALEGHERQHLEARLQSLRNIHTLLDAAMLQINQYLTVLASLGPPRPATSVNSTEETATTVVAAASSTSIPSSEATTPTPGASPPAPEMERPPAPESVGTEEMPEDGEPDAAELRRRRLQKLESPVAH
UniProt Q10471: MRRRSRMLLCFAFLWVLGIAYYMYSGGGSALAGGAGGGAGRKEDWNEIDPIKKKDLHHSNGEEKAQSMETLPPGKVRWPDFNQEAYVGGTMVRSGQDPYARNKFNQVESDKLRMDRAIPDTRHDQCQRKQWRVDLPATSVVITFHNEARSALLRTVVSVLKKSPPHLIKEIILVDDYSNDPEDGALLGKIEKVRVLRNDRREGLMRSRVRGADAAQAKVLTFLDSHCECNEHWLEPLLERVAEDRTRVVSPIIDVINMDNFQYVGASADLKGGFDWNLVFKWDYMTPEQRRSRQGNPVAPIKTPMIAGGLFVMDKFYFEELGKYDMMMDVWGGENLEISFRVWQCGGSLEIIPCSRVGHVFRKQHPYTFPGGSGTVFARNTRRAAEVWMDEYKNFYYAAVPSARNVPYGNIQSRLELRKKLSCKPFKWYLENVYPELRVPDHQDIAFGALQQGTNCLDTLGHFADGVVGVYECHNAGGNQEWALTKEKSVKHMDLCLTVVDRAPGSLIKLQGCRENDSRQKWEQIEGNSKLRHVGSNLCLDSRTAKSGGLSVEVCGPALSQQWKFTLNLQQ

Holding throughout (assay): affinity purification with mass spectrometry
In assay [1] the target is T1, SLC6A15 (human) (UniProt Q9H2J7).
T1 sequence: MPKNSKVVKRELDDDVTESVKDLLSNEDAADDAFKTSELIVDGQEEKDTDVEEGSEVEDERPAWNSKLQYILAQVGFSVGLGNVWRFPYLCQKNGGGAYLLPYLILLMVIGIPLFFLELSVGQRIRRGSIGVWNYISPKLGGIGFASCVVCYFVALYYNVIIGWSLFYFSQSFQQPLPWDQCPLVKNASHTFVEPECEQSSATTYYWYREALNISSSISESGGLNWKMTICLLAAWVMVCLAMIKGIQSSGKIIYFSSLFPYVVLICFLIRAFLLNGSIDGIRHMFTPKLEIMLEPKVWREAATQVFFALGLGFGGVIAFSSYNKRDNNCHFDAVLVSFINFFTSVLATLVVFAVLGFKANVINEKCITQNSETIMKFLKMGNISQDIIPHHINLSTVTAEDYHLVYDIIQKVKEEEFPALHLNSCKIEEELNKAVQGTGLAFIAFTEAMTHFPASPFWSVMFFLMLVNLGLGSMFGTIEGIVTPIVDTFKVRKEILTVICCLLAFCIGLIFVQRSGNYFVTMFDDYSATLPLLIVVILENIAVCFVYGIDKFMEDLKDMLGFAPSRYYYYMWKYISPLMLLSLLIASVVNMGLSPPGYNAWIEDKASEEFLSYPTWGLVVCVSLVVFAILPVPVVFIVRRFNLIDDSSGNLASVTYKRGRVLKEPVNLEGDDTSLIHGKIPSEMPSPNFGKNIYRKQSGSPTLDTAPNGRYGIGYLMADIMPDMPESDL

In assay [2] the target is T2, SLC6A17 (human) (UniProt Q9H1V8).
T2 sequence: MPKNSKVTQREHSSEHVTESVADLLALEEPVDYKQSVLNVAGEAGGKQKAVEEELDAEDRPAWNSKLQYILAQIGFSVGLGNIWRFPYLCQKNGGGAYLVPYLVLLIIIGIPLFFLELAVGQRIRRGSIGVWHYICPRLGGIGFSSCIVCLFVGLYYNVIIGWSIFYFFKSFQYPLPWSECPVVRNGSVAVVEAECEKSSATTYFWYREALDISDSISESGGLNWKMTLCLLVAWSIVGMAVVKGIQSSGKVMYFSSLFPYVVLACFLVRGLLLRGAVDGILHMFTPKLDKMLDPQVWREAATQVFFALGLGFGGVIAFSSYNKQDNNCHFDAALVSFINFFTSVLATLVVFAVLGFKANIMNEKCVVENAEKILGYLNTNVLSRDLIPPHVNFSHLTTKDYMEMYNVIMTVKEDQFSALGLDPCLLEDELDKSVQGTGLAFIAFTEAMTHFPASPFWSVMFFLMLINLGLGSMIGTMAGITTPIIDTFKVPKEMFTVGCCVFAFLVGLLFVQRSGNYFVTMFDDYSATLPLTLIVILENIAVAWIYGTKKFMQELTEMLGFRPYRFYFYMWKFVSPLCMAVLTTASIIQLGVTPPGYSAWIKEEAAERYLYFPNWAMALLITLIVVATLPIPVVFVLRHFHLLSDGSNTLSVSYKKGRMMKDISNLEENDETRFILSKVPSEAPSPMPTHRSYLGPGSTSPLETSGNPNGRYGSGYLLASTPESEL

The target of assay [3] is SLC7A7 (human) (UniProt Q9UM01).
The target of assay [4] is SLC23A1 (human) (UniProt Q9UHI7).
Assay [5] deals with T3, SLC31A1 (human) (UniProt O15431).
T3 sequence: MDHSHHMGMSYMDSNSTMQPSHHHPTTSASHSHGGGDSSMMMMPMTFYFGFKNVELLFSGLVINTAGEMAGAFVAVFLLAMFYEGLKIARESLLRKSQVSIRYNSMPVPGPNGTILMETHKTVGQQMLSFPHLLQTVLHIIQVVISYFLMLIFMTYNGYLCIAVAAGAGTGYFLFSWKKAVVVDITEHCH

For assay [6], the target named is SLC43A2 (human) (UniProt Q8N370).
In assay [7] the target is T1, SLC6A15 (human). The source holds these as a separate data set.

As for KLHL36 (from UniProt Q8N4N3 1-616), the binding result in assay [1] and in assay [2] was “binds” in each case.

For the molecule “amino acid transporter heavy chain (SLC3A2) (from UniProt P08195 1-529)”, the binding result in assay [3] was “binds”.

With “ubiquitin ligase SYVN1 (from UniProt Q86TM6 1-617)”, the binding entry in assay [4] is “binds”.

“GalNAc transferase GALNT2 (from UniProt Q10471 1-571)”: the binding entry in assay [4] is on record as “binds”.

B1: syntaxin-7 (protein, UniProt O15400 1-261)
chain: MSYTPGVGGDPAQLAQRISSNIQKITQCSVEIQRTLNQLGTPQDSPELRQQLQQKQQYTNQLAKETDKYIKEFGSLPTTPSEQRQRKIQKDRLVAEFTTSLTNFQKVQRQAAEREKEFVARVRASSRVSGSFPEDSSKERNLVSWESQTQPQVQVQDEEITEDDLRLIHERESSIRQLEADIMDINEIFKDLGMMIHEQGDVIDSIEANVENAEVHVQQANQQLSRAADYQRKSRKTLCIIILILVIGVAIISLIIWGLNH
For the molecule B1, the binding entry in assay [5] is on record as “binds”.

B2: WDR6 (protein, UniProt Q9NNW5 1-1121)
chain: MDALEDYVWPRATSELILLPVTGLECVGDRLLAGEGPDVLVYSLDFGGHLRMIKRVQNLLGHYLIHGFRVRPEPNGDLDLEAMVAVFGSKGLRVVKISWGQGHFWELWRSGLWNMSDWIWDARWLEGNIALALGHNSVVLYDPVVGCILQEVPCTDRCTLSSACLIGDAWKELTIVAGAVSNQLLVWYPATALADNKPVAPDRRISGHVGIIFSMSYLESKGLLATASEDRSVRIWKVGDLRVPGGRVQNIGHCFGHSARVWQVKLLENYLISAGEDCVCLVWSHEGEILQAFRGHQGRGIRAIAAHERQAWVITGGDDSGIRLWHLVGRGYRGLGVSALCFKSRSRPGTLKAVTLAGSWRLLAVTDTGALYLYDVEVKCWEQLLEDKHFQSYCLLEAAPGPEGFGLCAMANGEGRVKVVPINTPTAAVDQTLFPGKVHSLSWALRGYEELLLLASGPGGVVACLEISAAPSGKAIFVKERCRYLLPPSKQRWHTCSAFLPPGDFLVCGDRRGSVLLFPSRPGLLKDPGVGGKARAGAGAPVVGSGSSGGGNAFTGLGPVSTLPSLHGKQGVTSVTCHGGYVYTTGRDGAYYQLFVRDGQLQPVLRQKSCRGMNWLAGLRIVPDGSMVILGFHANEFVVWNPRSHEKLHIVNCGGGHRSWAFSDTEAAMAFAYLKDGDVMLYRALGGCTRPHVILREGLHGREITCVKRVGTITLGPEYGVPSFMQPDDLEPGSEGPDLTDIVITCSEDTTVCVLALPTTTGSAHALTAVCNHISSVRAVAVWGIGTPGGPQDPQPGLTAHVVSAGGRAEMHCFSIMVTPDPSTPSRLACHVMHLSSHRLDEYWDRQRNRHRMVKVDPETRYMSLAVCELDQPGLGPLVAAACSDGAVRLFLLQDSGRILQLLAETFHHKRCVLKVHSFTHEAPNQRRRLLLCSAATDGSLAFWDLTTMLDHDSTVLEPPVDPGLPYRLGTPSLTLQAHSCGINSLHTLPTREGHHLVASGSEDGSLHVFVLAVEMLQLEEAVGEAGLVPQLRVLEEYSVPCAHAAHVTGLKILSPSIMVSASIDQRLTFWRLGHGEPTFMNSTVFHVPDVADMDCWPVSPEFGHRCALGGQGLEVYNWYD
Consider B2, for which the binding entry in assay [5] was “binds”.

B3: MPP1 (protein, UniProt Q00013 1-466)
chain: MTLKASEGESGGSMHTALSDLYLEHLLQKRSRPEAVSHPLNTVTEDMYTNGSPAPGSPAQVKGQEVRKVRLIQFEKVTEEPMGITLKLNEKQSCTVARILHGGMIHRQGSLHVGDEILEINGTNVTNHSVDQLQKAMKETKGMISLKVIPNQQSRLPALQMFMRAQFDYDPKKDNLIPCKEAGLKFATGDIIQIINKDDSNWWQGRVEGSSKESAGLIPSPELQEWRVASMAQSAPSEAPSCSPFGKKKKYKDKYLAKHSSIFDQLDVVSYEEVVRLPAFKRKTLVLIGASGVGRSHIKNALLSQNPEKFVYPVPYTTRPPRKSEEDGKEYHFISTEEMTRNISANEFLEFGSYQGNMFGTKFETVHQIHKQNKIAILDIEPQTLKIVRTAELSPFIVFIAPTDQGTQTEALQQLQKDSEAIRSQYAHYFDLSLVNNGVDETLKKLQEAFDQACSSPQWVPVSWVY
Consider B3, for which, in assay [6], the binding entry is “binds”.

B4: GOLGA5 (protein, UniProt Q8TBA6 1-731)
chain: MSWFVDLAGKAEDLLNRVDQGAATALSRKDNASNIYSKNTDYTELHQQNTDLIYQTGPKSTYISSAADNIRNQKATILAGTANVKVGSRTPVEASHPVENASVPRPSSHFVRRKKSEPDDELLFDFLNSSQKEPTGRVEIRKEKGKTPVFQSSQTSSVSSVNPSVTTIKTIEENSFGSQTHEAASNSDSSHEGQEESSKENVSSNAACPDHTPTPNDDGKSHELSNLRLENQLLRNEVQSLNQEMASLLQRSKETQEELNKARARVEKWNADHSKSDRMTRGLRAQVDDLTEAVAAKDSQLAVLKVRLQEADQLLSTRTEALEALQSEKSRIMQDQSEGNSLQNQALQTFQERLHEADATLKREQESYKQMQSEFAARLNKVEMERQNLAEAITLAERKYSDEKKRVDELQQQVKLYKLNLESSKQELIDYKQKATRILQSKEKLINSLKEGSGFEGLDSSTASSMELEELRHEKEMQREEIQKLMGQIHQLRSELQDMEAQQVNEAESAREQLQDLHDQIAGQKASKQELETELERLKQEFHYIEEDLYRTKNTLQSRIKDRDEEIQKLRNQLTNKTLSNSSQSELENRLHQLTETLIQKQTMLESLSTEKNSLVFQLERLEQQMNSASGSSSNGSSINMSGIDNGEGTRLRNVPVLFNDTETNLAGMYGKVRKAASSIDQFSIRLGIFLRRYPIARVFVIIYMALLHLWVMIVLLTYTPEMHHDQPYGK
For the molecule B4, the binding result in assay [7] is “binds”.

These data come from doi:10.1101/2024.09.30.615192.
